Assay results from US5441987A, “Antifungal agent” (Merck & Co., Inc., priority 1994, dated 1995).
Values after ≈ are worked out from the molar mass of the structure shown.

Tests used:
[1] = test system: Candids albicans (MY 1028); assay: broth microdilution MIC/MFC assay; conditions: Candida albicans, 24 h, read-out: Minimum Inhibitory Concentration (MIC)
C. albicans (MY 1750) = assay: broth microdilution MIC/MFC assay; conditions: Candida albicans, 24 h, read-out: Minimum Inhibitory Concentration (MIC)

Structure (SMILES): C[C@@H]1[C@H](O)[C@@H](C)/C=C/C=C/C=C/C=C/C=C/C=C/C=C/[C@H](O[C@@H]2O[C@H](C)[C@@H](O)[C@H](N)[C@@H]2O)C[C@@H]2O[C@](O)(C[C@@H](O)C[C@@H](O)[C@H](O)CC[C@@H](O)C[C@@H](O)CC(=O)O[C@H]1C)C[C@H](O)[C@H]2C(=O)O [Amphotericin B, reference compound]
- MIC [1]: 2 µg/mL (≈ 2.16 µM)
- MIC (C. albicans (MY 1750)): 2 µg/mL (≈ 2.16 µM)
